Assay results reported in publication PMC12040169 (PLOS Biology, 2025).
This is one part of the list.

These molecules were tested on T1, CTL2-GFP (C. trachomatis L2/434/Bu, GFP-expressing). Settings: bulk GFP, single well; 28.5 h, 10 µM; inhibitor.
T1 construct: L2/434/Bu, GFP-expressing
Set-up: species or system HeLa; Intracellular C. trachomatis growth in HeLa cells, bulk GFP fluorescence relative to DMSO

SMILES	% of control remaining [%]
COC(=O)c1c(NC(=S)Nc2ccc(Br)cn2)sc2c1CCC(C)C2 (stereo not drawn) [CBK266962]	145.383
Nc1cc2ccccc2c(-c2cccc(C(F)(F)F)c2)n1 [CBK085721]	96.9189
O=C(CSc1nc(-c2ccco2)cc(C(F)(F)F)n1)Nc1ccc(C(=O)N2CCCCC2)cc1 [CBK266238]	127.714
O=C(NCCc1ccc(Cl)cc1)C1CCN(C(=O)c2ccc3nsnc3c2)C1 (stereo not drawn) [CBK285553]	113.397
COC(=O)Nc1nc2cc(F)c(Cl)cc2[nH]1 [CBK026927]	135.263
c1coc(-c2nc3cnccn3c2NC2CCCC2)c1 [CBK283678]	157.163
Cc1cc(I)ccc1NC(=O)CCC(=O)N/N=C/c1ccco1 [CBK261991]	107.583
CC(Oc1cccc(F)c1)C(=O)N(C)Cc1cccnc1 (stereo not drawn) [CBK304841]	150.755
Cc1ccc(S(=O)(=O)N2C[C@H]3C[C@H](NC(=O)C4CC4C)[C@H]3C2)cc1 (stereo partly drawn) [CBK285318]	105.618
CC(C)CC(=O)N1CCCn2nc(-c3ccncc3)cc2C1 [CBK288606]	109.034
CN1CCN(CCC(=O)Nc2ccc(Cl)c(C(F)(F)F)c2)CC1 [CBK265995]	101.283
Cn1ncc(N2CCC(CNC(=O)COc3ccccc3)C2)cc1=O (stereo not drawn) [CBK306810]	137.216
c1ccc(C(CCN2CCC[C@@H]2CN2CCCC2)c2ccccc2)cc1 [CBK149109]	151.018
COc1cccc(C(=O)N2CCC(Cc3ccc(-c4ccccc4)cc3)(C(N)=O)CC2)c1 [CBK285770]	109.112
COc1cc(/C=C/C(=O)NCc2ccccn2)cc(OC)c1OC [CBK264752]	131.455
COc1ccc(C(NC(=O)CC2CCN(c3nc(C)cc(C)n3)CC2)C2CC2)cc1 (stereo not drawn) [CBK285994]	118.763
C#CCN(C1CCc2ccccc21)S(=O)(=O)c1cc(C(=O)NC)n(C)c1 (stereo not drawn) [CBK306235]	99.332
CC(=O)c1cccc(NC(=O)N(Cc2ccco2)CC2CCCO2)c1 (stereo not drawn) [CBK304467]	112.651
C(=N\N=C\c1ccccn1)/c1ccccn1 [CBK015627]	148.419
O=S(=O)(NCCSc1ccccn1)c1ccc(Br)cc1 [CBK264001]	100
O=C(NCc1ccccn1)c1cc2cc(Cl)ccc2[nH]1 [CBK107265]	101.451
COc1cc(CN2CCC(C)CC2)c([N+](=O)[O-])cc1OC [CBK261911]	100
COC(=O)C1CCN(Cc2nc3sc4c(c3c(=O)[nH]2)CCC(C)C4)CC1 (stereo not drawn) [CBK304978]	79.1308
Cc1nn(C)c(C)c1CCC(=O)NCC(C)Oc1ccccc1F (stereo not drawn) [CBK305194]	112.056
CC(C)C(=O)Nc1cc2ccccc2c(-c2ccc(N(C)C)cc2)n1 [CBK085776]	125.282
Cc1noc(C)c1CC(=O)NC(C)c1nc2ccccc2s1 (stereo not drawn) [CBK281467]	86.0319

SMILES	% of control remaining [%]
CN(CCNC(=O)Nc1ccc2c(c1)oc(=O)n2C)C1CCCC1 [CBK305503]	101.389
Cc1cc(OCC(=O)NCCCN2CCOCC2)cc(C)c1Br [CBK265082]	100
CCOC(=O)c1ccccc1NC(=O)N(Cc1ccc2ccccc2c1)CC1CCNCC1 [CBK049769]	88.3226
Cc1cccc(C)c1NC(=O)CCC(=O)OCc1ccccc1 [CBK267158]	158.682
CCC(CO)Nc1cncc(-c2cccs2)n1 (stereo not drawn) [CBK065534]	81.64
CC(C)(CC(=O)Nc1sc2c(c1C(=O)O)CCC2)CC(=O)Nc1sc2c(c1C(=O)O)CCC2 [CBK296100]	154.198
Nc1ncc(-c2cncnc2)nc1N1CCOCC1 [CBK063422]	74.3141
O=C(c1cc(F)c(F)cc1F)N1CCC2(CCCN(Cc3cc(=O)[nH]c(=O)[nH]3)C2)C1 (stereo not drawn) [CBK132010]	96.9221
CCOC(=O)c1ccc(S(=O)(=O)Nc2cc(C(=O)O)ccc2F)cc1 [CBK295308]	180.291
C=CCSc1nc2sc3c(c2c(=O)[nH]1)CCCC3 [CBK287344]	103.287
COc1ccc(Cl)cc1S(=O)(=O)NC(C)C(=O)O (stereo not drawn) [CBK270233]	110.789
CCCCC12CN3CC(C)(CN(C1)C31C(=O)Nc3ccc(Br)cc31)C2=O (stereo not drawn) [CBK267348]	139.463
O=C(O)CCCCCN1C(=O)/C(=C/c2ccc(O)c(O)c2)SC1=S [CBK262771]	100
NS(=O)(=O)c1ccc(S(=O)(=O)NCCc2c[nH]c3ccccc23)cc1 [CBK266691]	176.584
CCCc1[nH]ncc1C(=O)N1CCN(c2ccnc(N(C)C)n2)CC1 [CBK305406]	78.6633
CS(=O)(=O)N(Cc1ccccc1)c1ccc(C(=O)Nc2ccc(-c3ccccc3)cc2)cc1 [CBK262754]	127.222
Cc1occc1C(=O)NC(C)c1ccc2c(c1)OCO2 (stereo not drawn) [CBK268153]	107.472
COc1ccc(CC(=O)Nc2ccc(-c3nnc(-c4ccccc4)o3)cc2)cc1OC [CBK267414]	136.651
COc1ccc2c(c1)c(C(NCc1cccc(C(F)(F)F)c1)C(N)=O)nn2Cc1ccccc1 (stereo not drawn) [CBK010715]	118.092
O=C(CN1C(=O)N2CCN=C2c2ccccc21)NC1CC1 [CBK283958]	138.149
COc1ccc2c(c1)OC1(CCN(CC(O)c3ccc(-c4ccccc4)cc3)CC1)CC2O (stereo not drawn) [CBK286346]	131.014
Cc1sc(NC(=O)CN(Cc2cnn(C)c2)C(C)C)c(C#N)c1C [CBK306303]	132.627
COC(=O)c1sccc1NC(=O)Cn1nnc(-c2ccc(C)cc2)n1 [CBK267183]	170.766
Brc1ccc2[nH]c3c(c2c1)CCOC31CCN(CC2CCCCO2)CC1 (stereo not drawn) [CBK040648]	100
CCc1nn(CC(=O)N(CC)CC)c(=O)c2cc3occc3n12 [CBK283656]	91.6612
